Data published in US20180040391A1, “GAS-INSULATED MEDIUM-OR HIGH-VOLTAGE ELECTRICAL APPARATUS INCLUDING HEPTAFLUOROISOBUTYRONITRILE AND TETRAFLUOROMETHANE” (General Electric Technology GmbH, priority 2015, published 2018).

Tests used:
[1] = cited from earlier work
[2] = relative dielectric strength normalized relative to SF6; assay type: physicochemical; conditions: atmospheric pressure, DC voltage, two steel electrodes of diameter 2.54 cm spaced apart by 0.1 cm
[3] = global warming potential (GWP)
[4] = Table IV, components of the mixture for −30° C.
[5] = Table V, components of the mixture for −25° C.
[6] = calculated over 100 years in accordance with the IPCC method, 2013

SMILES | GWP ([1]; prior-art gases) | relative dielectric strength, normalized relative to SF6 [2] | GWP ([1]; dilution gases) | further results
FC(F)(F)C(F)(F)F [C2F6] | 9200 |  |  | 
FC(F)(F)C(F)(F)C(F)(F)F [C3F8] | 7000 |  |  | 
FC(F)(F)C(F)(F)C(F)(F)C(F)(F)F [C4F10] | 7000 |  |  | 
FC(F)(F)I [CF3I, trifluoroiodomethane] | less than 5 |  |  | 
FC(F)(F)F [CF4, tetrafluoromethane] | 6500 | 0.4-0.5 |  | GWP [3, 4]: 6500; GWP [3, 5]: 6500; GWP [3, 6]: 6500
O=C=O [CO2, carbon dioxide, reference compound] |  |  | 1 | GWP [3, 4]: 1; GWP [3, 5]: 1
N#N [N2, nitrogen, reference compound] |  | 0.35-0.4 | 0 | 
FS(F)(F)(F)(F)F [SF6, sulfur hexafluoride, reference compound] |  | 1.0 |  | global warming potential (GWP) ([1]; relative to CO2 over 100 years, IPCC report 2013): 23500
FC1(F)C(F)(F)C(F)(F)C1(F)F [c-C4F8] | 8700 |  |  | 
[He] [helium] |  |  | 0 | 
N#CC(F)(C(F)(F)F)C(F)(F)F [i-C3F7CN, 2,3,3,3-tetrafluoro-2-trifluoromethyl propanenitrile] |  | 2.6 |  | GWP [3, 4]: 2210; GWP [3, 5]: 2210; GWP [3, 6]: 2210
[N-]=[N+]=O [nitrous oxide] |  |  | 310 | 
O=O [oxygen] |  |  | 0 | 

Where two headings read alike, the source gives them in different places.
